Experimental data from the supplement of paper PMC10849652.
The other results are listed elsewhere or left out.

Chains of the proteins cited; added tags and fusions are not shown. Lines headed by an entry give the natural chain unless they say otherwise; changes in a name come on top.
UniProt Q9NZT2: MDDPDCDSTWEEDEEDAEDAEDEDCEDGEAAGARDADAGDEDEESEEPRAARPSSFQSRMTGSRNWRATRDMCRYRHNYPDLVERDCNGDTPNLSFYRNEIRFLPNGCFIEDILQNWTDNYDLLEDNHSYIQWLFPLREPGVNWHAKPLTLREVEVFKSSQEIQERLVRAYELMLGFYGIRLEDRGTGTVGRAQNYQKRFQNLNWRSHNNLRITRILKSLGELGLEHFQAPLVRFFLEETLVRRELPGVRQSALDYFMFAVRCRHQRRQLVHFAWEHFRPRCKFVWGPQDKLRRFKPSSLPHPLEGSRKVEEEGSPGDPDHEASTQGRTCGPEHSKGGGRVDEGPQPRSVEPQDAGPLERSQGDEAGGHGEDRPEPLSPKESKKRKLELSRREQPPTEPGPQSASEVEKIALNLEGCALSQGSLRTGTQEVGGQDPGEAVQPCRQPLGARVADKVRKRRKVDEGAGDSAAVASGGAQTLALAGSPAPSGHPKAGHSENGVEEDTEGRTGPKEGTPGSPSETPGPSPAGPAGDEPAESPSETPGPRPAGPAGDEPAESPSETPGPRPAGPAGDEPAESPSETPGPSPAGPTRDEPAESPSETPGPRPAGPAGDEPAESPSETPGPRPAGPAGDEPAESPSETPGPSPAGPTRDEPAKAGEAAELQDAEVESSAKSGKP
UniProt Q6PK18: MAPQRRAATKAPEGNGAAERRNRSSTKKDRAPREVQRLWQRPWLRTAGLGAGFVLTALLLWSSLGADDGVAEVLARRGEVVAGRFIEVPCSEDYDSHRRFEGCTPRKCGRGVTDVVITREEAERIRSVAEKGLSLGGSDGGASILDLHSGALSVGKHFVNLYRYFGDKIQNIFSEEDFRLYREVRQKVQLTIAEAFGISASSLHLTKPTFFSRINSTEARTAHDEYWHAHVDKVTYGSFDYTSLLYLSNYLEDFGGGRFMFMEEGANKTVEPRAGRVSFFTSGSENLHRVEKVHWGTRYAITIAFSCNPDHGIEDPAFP
UniProt Q9Y530: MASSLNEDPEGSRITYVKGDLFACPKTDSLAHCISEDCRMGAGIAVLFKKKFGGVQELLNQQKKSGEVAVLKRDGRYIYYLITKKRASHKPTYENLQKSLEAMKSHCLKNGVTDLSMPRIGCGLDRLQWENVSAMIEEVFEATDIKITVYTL
UniProt Q96SU4: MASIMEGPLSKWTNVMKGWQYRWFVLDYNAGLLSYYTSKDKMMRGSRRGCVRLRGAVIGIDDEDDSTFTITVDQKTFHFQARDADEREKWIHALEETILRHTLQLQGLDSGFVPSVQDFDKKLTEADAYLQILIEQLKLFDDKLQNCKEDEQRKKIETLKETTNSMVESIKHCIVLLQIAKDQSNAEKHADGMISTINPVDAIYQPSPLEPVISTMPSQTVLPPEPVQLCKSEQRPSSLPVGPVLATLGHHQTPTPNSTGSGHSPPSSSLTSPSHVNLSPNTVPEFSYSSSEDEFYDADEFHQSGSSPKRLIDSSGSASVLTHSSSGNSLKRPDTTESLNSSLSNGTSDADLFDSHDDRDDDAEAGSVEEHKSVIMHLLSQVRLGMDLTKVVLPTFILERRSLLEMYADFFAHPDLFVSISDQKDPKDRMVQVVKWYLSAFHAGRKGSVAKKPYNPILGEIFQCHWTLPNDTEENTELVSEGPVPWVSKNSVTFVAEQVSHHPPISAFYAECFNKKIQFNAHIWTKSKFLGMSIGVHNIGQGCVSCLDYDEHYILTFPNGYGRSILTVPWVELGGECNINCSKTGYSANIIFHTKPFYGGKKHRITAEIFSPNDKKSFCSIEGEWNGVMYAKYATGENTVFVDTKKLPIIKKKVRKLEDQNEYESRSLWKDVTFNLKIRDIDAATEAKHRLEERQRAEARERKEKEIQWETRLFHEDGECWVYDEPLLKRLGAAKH
UniProt Q8N543: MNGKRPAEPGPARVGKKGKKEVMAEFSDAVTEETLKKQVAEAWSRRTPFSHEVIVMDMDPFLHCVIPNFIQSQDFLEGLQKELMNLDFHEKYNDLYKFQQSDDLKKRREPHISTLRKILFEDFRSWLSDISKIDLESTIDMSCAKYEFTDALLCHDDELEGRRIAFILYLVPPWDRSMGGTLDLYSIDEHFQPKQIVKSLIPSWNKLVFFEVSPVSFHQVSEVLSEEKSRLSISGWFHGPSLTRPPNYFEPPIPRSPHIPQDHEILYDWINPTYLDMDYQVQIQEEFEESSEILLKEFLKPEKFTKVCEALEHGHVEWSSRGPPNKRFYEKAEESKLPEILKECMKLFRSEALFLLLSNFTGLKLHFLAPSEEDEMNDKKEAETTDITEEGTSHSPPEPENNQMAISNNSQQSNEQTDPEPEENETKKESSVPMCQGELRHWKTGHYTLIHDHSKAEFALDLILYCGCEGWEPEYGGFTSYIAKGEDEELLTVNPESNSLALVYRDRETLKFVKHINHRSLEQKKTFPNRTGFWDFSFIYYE
UniProt P68402: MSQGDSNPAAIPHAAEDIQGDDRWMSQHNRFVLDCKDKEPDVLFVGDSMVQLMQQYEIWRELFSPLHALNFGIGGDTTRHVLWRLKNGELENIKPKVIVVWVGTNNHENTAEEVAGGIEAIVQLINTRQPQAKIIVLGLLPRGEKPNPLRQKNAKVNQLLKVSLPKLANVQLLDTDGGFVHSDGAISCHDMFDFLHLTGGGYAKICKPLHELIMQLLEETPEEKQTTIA
UniProt P04181: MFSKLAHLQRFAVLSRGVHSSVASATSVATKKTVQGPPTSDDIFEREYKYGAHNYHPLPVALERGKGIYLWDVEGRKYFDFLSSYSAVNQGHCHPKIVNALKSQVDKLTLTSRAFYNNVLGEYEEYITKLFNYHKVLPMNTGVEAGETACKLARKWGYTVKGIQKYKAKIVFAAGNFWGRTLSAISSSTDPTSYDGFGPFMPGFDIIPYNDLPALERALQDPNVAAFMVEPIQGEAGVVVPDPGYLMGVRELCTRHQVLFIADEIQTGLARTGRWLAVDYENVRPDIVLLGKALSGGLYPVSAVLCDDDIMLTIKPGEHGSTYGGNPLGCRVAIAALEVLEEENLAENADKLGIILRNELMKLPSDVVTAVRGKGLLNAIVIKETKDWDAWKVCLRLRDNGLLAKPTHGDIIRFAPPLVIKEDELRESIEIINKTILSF
UniProt O15504: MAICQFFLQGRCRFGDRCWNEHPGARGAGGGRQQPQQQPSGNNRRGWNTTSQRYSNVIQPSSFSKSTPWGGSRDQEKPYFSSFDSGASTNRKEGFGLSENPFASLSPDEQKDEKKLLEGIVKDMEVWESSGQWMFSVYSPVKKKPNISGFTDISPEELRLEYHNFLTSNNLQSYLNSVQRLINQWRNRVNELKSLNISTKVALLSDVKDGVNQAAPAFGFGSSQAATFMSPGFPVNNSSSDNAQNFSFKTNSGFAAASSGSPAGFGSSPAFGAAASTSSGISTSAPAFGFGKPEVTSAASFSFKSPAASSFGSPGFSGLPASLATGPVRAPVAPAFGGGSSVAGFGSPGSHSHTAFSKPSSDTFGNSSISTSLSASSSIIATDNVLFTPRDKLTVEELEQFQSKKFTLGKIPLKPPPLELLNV
UniProt Q9Y5N6: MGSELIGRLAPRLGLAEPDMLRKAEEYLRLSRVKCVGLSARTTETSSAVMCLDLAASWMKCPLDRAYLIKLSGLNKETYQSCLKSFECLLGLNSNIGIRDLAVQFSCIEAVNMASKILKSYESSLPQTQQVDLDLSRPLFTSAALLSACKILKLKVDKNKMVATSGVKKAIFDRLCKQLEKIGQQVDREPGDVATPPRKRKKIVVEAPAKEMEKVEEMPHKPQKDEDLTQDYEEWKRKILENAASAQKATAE
UniProt Q96FW1, whole entry, looked up: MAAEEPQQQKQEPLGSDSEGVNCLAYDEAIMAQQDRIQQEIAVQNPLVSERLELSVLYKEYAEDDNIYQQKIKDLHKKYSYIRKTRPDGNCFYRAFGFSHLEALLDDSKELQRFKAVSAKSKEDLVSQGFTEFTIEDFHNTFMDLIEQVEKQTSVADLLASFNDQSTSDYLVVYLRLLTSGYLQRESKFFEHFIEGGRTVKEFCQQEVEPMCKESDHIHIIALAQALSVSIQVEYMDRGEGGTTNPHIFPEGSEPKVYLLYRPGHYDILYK
UniProt Q8TEM1: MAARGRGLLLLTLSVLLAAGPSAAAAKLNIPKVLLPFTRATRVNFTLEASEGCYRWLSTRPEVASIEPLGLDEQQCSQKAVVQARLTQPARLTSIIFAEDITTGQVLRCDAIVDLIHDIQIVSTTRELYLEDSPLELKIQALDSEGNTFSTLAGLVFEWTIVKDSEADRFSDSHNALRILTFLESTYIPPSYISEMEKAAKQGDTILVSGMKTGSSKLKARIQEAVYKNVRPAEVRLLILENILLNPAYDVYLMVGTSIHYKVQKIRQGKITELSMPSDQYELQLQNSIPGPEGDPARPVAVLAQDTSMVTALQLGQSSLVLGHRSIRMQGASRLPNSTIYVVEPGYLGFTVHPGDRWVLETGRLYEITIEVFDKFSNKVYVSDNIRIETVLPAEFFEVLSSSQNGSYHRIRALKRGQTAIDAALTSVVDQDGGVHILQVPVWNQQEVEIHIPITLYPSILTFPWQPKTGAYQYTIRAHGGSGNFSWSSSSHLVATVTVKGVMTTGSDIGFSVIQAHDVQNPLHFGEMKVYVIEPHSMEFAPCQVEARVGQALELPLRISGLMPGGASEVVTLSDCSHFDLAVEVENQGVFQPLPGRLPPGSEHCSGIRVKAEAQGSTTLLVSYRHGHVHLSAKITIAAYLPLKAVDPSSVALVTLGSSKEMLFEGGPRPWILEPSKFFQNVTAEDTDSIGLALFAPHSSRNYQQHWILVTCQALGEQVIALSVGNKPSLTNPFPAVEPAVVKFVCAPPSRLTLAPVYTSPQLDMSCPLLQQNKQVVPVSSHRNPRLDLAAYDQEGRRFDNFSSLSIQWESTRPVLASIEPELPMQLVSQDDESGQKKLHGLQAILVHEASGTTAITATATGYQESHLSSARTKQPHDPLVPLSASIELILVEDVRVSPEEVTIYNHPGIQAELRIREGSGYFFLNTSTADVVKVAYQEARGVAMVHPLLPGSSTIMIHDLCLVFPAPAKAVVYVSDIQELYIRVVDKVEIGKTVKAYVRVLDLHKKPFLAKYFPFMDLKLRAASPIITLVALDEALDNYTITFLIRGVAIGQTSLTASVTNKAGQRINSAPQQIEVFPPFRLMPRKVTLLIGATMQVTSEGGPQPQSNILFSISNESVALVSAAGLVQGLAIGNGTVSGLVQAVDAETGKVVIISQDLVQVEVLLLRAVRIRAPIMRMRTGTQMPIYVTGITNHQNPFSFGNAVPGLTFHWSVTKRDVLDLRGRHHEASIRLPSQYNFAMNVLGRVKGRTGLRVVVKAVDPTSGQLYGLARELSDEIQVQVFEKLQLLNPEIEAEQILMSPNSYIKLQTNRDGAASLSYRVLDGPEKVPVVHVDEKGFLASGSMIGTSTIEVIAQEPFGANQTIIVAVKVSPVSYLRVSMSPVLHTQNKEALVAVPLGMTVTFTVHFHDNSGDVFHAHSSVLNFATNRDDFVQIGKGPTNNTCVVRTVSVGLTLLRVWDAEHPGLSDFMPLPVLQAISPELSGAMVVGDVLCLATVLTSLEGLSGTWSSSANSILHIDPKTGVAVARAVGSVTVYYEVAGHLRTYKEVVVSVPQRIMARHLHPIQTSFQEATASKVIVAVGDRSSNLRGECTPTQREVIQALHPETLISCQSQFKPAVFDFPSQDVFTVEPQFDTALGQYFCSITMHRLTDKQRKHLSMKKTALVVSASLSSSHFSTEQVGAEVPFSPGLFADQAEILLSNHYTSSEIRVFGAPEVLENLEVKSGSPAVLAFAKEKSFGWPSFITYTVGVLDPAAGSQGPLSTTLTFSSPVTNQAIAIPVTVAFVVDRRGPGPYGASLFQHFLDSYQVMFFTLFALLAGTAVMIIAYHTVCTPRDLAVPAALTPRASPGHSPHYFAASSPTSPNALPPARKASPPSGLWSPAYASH
UniProt Q9BXS6: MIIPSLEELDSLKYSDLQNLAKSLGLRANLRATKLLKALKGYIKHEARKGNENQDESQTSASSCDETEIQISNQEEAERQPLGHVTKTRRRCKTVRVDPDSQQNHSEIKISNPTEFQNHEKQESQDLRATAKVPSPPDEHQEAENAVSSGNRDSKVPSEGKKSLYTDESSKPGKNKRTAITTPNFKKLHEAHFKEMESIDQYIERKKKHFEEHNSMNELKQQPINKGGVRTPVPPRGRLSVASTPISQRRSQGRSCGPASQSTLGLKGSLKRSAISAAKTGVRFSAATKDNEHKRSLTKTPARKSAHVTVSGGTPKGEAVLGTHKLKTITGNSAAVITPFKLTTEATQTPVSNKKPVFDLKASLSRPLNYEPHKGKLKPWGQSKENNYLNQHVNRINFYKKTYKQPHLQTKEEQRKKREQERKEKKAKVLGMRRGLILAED
UniProt Q92882: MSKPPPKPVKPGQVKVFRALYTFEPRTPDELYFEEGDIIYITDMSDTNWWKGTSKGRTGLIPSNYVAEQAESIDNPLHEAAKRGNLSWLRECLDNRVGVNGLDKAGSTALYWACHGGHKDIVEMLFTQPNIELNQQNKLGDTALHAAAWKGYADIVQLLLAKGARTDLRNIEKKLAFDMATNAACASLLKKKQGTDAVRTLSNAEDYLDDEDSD

Legend:
Experiment in all cases: log2 fold change, soluble protein after heating vs DMSO (PISA); higher = thermal stabilisation; K562 lysate, 10 uM; active = over 0.2 and 3.5 SD of the protein, either way, in both replicates (recomputed)
erlotinib = compound: C#Cc1cccc(Nc2ncnc3cc(OCCOC)c(OCCOC)cc23)c1 [erlotinib]
Summary of the method: (§1)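 A 30 min treatment with 10 μM compound was applied to crude K562 extract at 1 mg/mL protein in PBS pH 7.4 with 1 mM MgCl2. Heating for 3 min spanned 48°C-58°C, after which aliquots were pooled, adjusted to 0.5% NP-40 at 4°C and spun at 21,000xg for 90 min. TMTpro 16plex LC-MS/MS of the supernatant, with channel sums equalised, gave values recorded as log-two fold change in thermal stability against solvent controls, from duplicates.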

[1] = compound: C/C(=N\NC(=O)C1=CC(=CC=C1)S(=O)(=O)N2CCOCC2)/C3=C(C=CC(=C3)Cl)O
Summary of the method: as §1

[2] = compound: C1=CC(=CC=C1C2=NC3=C(N2)C=C(C=C3)C(=O)N)OC4=CC=C(C=C4)Cl
Summary of the method: as §1

[3] = compound: C1=CC2=C(C=CC(=C2)/C=C\3/C(=O)NC(=NCC4=CC=CS4)S3)N=C1
Summary of the method: as §1

[4] = compound: C1=CC2=NC=CN=C2C=C1/C=C/3\C(=O)NC(=O)S3
Summary of the method: as §1

[5] = compound: C1=CC=C(C=C1)C2=NC(=C(N2)C3=CC=NC=C3)C4=CC(=C(C=C4)Cl)O
Summary of the method: as §1

[6] = compound: C1=CC=C2C(=C1)C3=NNC4=CC=CC(=C43)C2=O
Summary of the method: as §1

[7] = compound: C1CCN(C1)C(=O)NC2=CC=CC(=C2)NC3=NC=C(C(=N3)NCCC4=CN=CN4)Br
Summary of the method: as §1

[8] = compound: C1CN(CCC1(CC2=CC=C(C=C2)Cl)N)C3=NC=NC4=C3C=CN4
Summary of the method: as §1

IRAK-1-4 Inhibitor I = compound: C1COCCN1CCN2C3=CC=CC=C3N=C2NC(=O)C4=CC(=CC=C4)[N+](=O)[O-] [IRAK-1-4 Inhibitor I]
Summary of the method: as §1

Target | log2 fold change (erlotinib) | log2 fold change [1] | log2 fold change [2] | log2 fold change [3] | log2 fold change [4] | log2 fold change [5] | log2 fold change [6] | log2 fold change [7] | log2 fold change [8] | log2 fold change (IRAK-1-4 Inhibitor I)
NUP43 (UniProt Q8NFH3) | inactive: -0.001 | inactive: -0.13 | inactive: 0.014 | inactive: 0.004 | inactive: 0.008 | inactive: -0.025 | inactive: -0.021 | inactive: 0.01 | inactive: 0.034 | inactive: 0.02
OGFR (UniProt Q9NZT2) | inactive: 0.023 | inactive: 0.023 | inactive: 0.018 | inactive: -0.015 | inactive: -0.012 | inactive: -0.011 | inactive: -0.027 | inactive: -0.01 | inactive: 0.038 | inactive: -0.012
OGFOD3 (UniProt Q6PK18) | inactive: -0.026 | inactive: 0.069 | inactive: -0.005 | inactive: -0.007 | inactive: -0.032 | inactive: -0.035 | inactive: -0.047 | inactive: -0.034 | inactive: -0.018 | inactive: -0.105
OARD1 (UniProt Q9Y530) | inactive: 0.002 | inactive: -0.1 | inactive: 0.008 | inactive: 0.028 | inactive: -0.019 | inactive: -0.015 | inactive: -0.031 | inactive: -0.036 | inactive: 0.041 | inactive: -0.01
PAIP2 (UniProt Q9BPZ3) | inactive: 0.044 | inactive: 0.041 | inactive: -0.016 | inactive: -0.01 | inactive: 0.004 | inactive: -0.054 | inactive: -0.053 | inactive: -0.044 | inactive: 0.022 | inactive: 0.017
OSBPL9 isoform 2 (UniProt Q96SU4) | inactive: 0.005 | inactive: -0.029 | inactive: 0.009 | inactive: -0.033 | inactive: 0.013 | inactive: -0.056 | inactive: -0.072 | inactive: 0.015 | inactive: 0.038 | inactive: 0.01
OGFOD1 (UniProt Q8N543) | inactive: 0.008 | inactive: 0 | inactive: -0.012 | inactive: -0.005 | inactive: -0.027 | inactive: 0.011 | inactive: 0.028 | inactive: -0.014 | inactive: -0.032 | inactive: 0.02
PAFAH1B2 (UniProt P68402) | inactive: 0.051 | inactive: -0.028 | inactive: 0.001 | inactive: -0.038 | inactive: 0.032 | inactive: 0.002 | inactive: -0.022 | inactive: -0.057 | inactive: 0.044 | inactive: -0.013
NUP85 (UniProt Q9BW27) | inactive: 0.015 | inactive: -0.007 | inactive: -0.06 | inactive: -0.07 | inactive: 0.003 | inactive: 0.016 | inactive: 0.013 | inactive: 0.038 | inactive: -0.005 | inactive: 0.022
PAICS (UniProt E9PBS1) | inactive: 0.017 | inactive: 0.179 | inactive: -0.012 | inactive: -0.037 | inactive: -0.044 | inactive: -0.005 | inactive: -0.012 | inactive: -0.145 | inactive: -0.204 | inactive: -0.014
OAT (UniProt P04181) | inactive: -0.006 | inactive: -0.074 | inactive: -0.04 | inactive: 0.023 | inactive: 0.007 | inactive: -0.017 | inactive: -0.038 | inactive: -0.033 | inactive: 0.008 | inactive: 0.018
NUP42 (UniProt O15504) | inactive: 0.036 | inactive: -0.049 | inactive: 0.039 | inactive: -0.089 | inactive: -0.096 | inactive: 0.001 | inactive: 0.062 | inactive: 0.091 | inactive: 0.151 | inactive: 0.034
OXCT1 (UniProt P55809) | inactive: -0.012 | inactive: -0.011 | inactive: 0.042 | inactive: 0.01 | inactive: -0.007 | inactive: -0.014 | inactive: 0.001 | inactive: -0.012 | inactive: 0.006 | inactive: 0.02
OSTM1 (UniProt Q86WC4) | inactive: -0.066 | inactive: 0.009 | inactive: -0.003 | inactive: 0.045 | inactive: 0.003 | inactive: -0.044 | inactive: -0.028 | inactive: -0.002 | inactive: -0.017 | inactive: -0.031
NXF1 (UniProt Q9UBU9) | inactive: 0.058 | inactive: -0.019 | inactive: -0.033 | inactive: 0.003 | inactive: -0.055 | inactive: -0.004 | inactive: 0 | inactive: 0.04 | inactive: -0.019 | inactive: -0.004
NUP88 (UniProt Q99567) | inactive: 0.006 | inactive: -0.023 | inactive: 0.041 | inactive: -0.001 | inactive: 0.006 | inactive: -0.077 | inactive: 0.017 | inactive: 0.004 | inactive: 0.018 | inactive: 0.011
OXA1L (UniProt Q15070) | inactive: -0.024 | inactive: -0.001 | inactive: -0.161 | inactive: 0.008 | inactive: 0.017 | inactive: 0.009 | inactive: -0.014 | inactive: 0.008 | inactive: -0.009 | inactive: -0.033
ORC6 (UniProt Q9Y5N6) | inactive: -0.033 | inactive: 0.097 | inactive: 0.015 | inactive: 0.096 | inactive: -0.018 | inactive: 0.061 | inactive: 0 | inactive: -0.043 | inactive: -0.144 | inactive: -0.074
PAFAH1B1 (UniProt P43034) | inactive: -0.046 | inactive: -0.116 | inactive: -0.009 | inactive: 0.009 | inactive: 0.007 | inactive: 0.011 | inactive: 0.062 | inactive: 0.007 | inactive: -0.011 | inactive: -0.03
OTUB1 (UniProt Q96FW1) | inactive: -0.003 | inactive: 0.037 | inactive: 0.008 | inactive: 0.005 | inactive: 0.011 | inactive: -0.002 | inactive: 0.043 | inactive: 0.028 | inactive: 0.028 | inactive: 0.029
OBI1 (UniProt Q5W0B1) | inactive: 0.013 | inactive: -0.124 | inactive: -0.011 | inactive: -0.052 | inactive: -0.018 | inactive: 0.059 | inactive: 0.03 | inactive: 0.029 | inactive: 0.057 | inactive: -0.03
NUP210 (UniProt Q8TEM1) | inactive: -0.018 | inactive: -0.019 | inactive: -0.049 | inactive: 0.036 | inactive: -0.004 | inactive: -0.046 | inactive: -0.157 | inactive: -0.008 | inactive: -0.001 | inactive: -0.009
P3H1 (UniProt Q32P28) | inactive: -0.02 | inactive: 0.027 | inactive: 0.015 | inactive: -0.002 | inactive: 0.002 | inactive: -0.005 | inactive: 0.01 | inactive: 0.024 | inactive: -0.009 | inactive: 0.013
PANX1 (UniProt Q96RD7) | inactive: -0.041 | inactive: 0.027 | inactive: 0.024 | inactive: 0.01 | inactive: -0.011 | inactive: -0.004 | inactive: -0.011 | inactive: -0.018 | inactive: -0.005 | inactive: 0.03
OXNAD1 (UniProt Q96HP4) | inactive: -0.056 | inactive: 0.055 | inactive: -0.036 | inactive: 0.037 | inactive: -0.02 | inactive: -0.015 | inactive: -0.026 | inactive: 0.043 | inactive: -0.055 | inactive: -0.069
OTC (UniProt P00480) | inactive: 0.09 | inactive: 0.138 | inactive: -0.096 | inactive: -0.121 | inactive: -0.049 | inactive: -0.074 | inactive: -0.069 | inactive: -0.074 | inactive: -0.095 | inactive: 0.125
OSBPL6 isoform 5 (UniProt Q9BZF3) | inactive: 0.182 | active: 0.398 | inactive: 0.09 | inactive: -0.006 | inactive: -0.012 | inactive: 0.257 | inactive: 0.107 | inactive: -0.029 | inactive: -0.015 | inactive: -0.08
NUSAP1 (UniProt Q9BXS6) | inactive: -0.011 | inactive: -0.466 | inactive: 0.025 | inactive: -0.008 | inactive: -0.033 | inactive: 0.008 | inactive: 0.035 | inactive: 0.012 | inactive: 0.001 | inactive: -0.005
OSTF1 (UniProt Q92882) | inactive: -0.017 | inactive: -0.055 | inactive: 0.03 | inactive: 0.051 | inactive: -0.01 | inactive: 0.005 | inactive: 0.04 | inactive: 0.088 | inactive: 0.096 | inactive: 0.025

An excerpt from above, showing only log2 fold change [1], log2 fold change (erlotinib) and log2 fold change [2].
Target	log2 fold change [1]	log2 fold change (erlotinib)	log2 fold change [2]
OTC (UniProt P00480)	inactive: 0.138	inactive: 0.09	inactive: -0.096
OSBPL6 isoform 5 (UniProt Q9BZF3)	active: 0.398	inactive: 0.182	inactive: 0.09
